PubChem BioAssay AID1259405 | NCATS – 2018

- Screen: 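Mouse-designed siRNAs used to find CHO productivity engineering targets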 (primary screen)
- System: Chinese hamster CHO-K1 ovary cells with stable secreted eGFP expression
- Reagents: single siRNA against mouse genes, 0.8 pmol siRNA per well (2 µl of 400 nM stock)
- Timing: 3 days
- Detection: 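Per-well intracellular GFP measured by laser scanning cytometry, plus viability from ATP luminescence, each relative to plate median of non-targeting control wells, in %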
- Scale: GFP, % of control: higher = more GFP per well, higher productivity; viability (ATP), % of control: higher = more viable cells (more ATP)
- Active means: 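Called active when intracellular GFP, relative to negative control, is at or above 120%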
The deposit covers about 50,000 reagents; this is a random part of them. About 4,000 of them (8%) were called active. 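Mouse siRNA library applied to hamster cells; one well for each siRNA.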 A number with no mark means an inactive call. The numbers tell different reagents against one gene apart.

The first 2 entries as a preview:
| target gene | reagent no. | GFP, % of control | viability (ATP), % of control |
| --- | --- | --- | --- |
| Srpk2 | 1 | 55.3 | 53.1 |
| Krabd5 | 1 | 60.7 | 65 |

Results, repeating the preview:
| target gene | reagent no. | GFP, % of control | viability (ATP), % of control |
| --- | --- | --- | --- |
| Srpk2 | 1 | 55.3 | 53.1 |
| Krabd5 | 1 | 60.7 | 65 |
| Krabd5 | 2 | 62.6 | 70.2 |
| Krabd5 | 3 | 152 (active) | 53.5 |
| Cdc23 | 1 | 56.4 | 74.3 |
| Cdc23 | 2 | 57.6 | 85.2 |
| Cdc23 | 3 | 61.4 | 114 |
| Or5m10 | 1 | 37.1 | 49 |
| Or5m10 | 2 | 72.8 | 97.2 |
| Or5m10 | 3 | 33.3 | 57.5 |
| Notch4 | 1 | 57 | 42.6 |
| Notch4 | 2 | 84 | 81.9 |
| Rpl24 | 1 | 124 (active) | 85.8 |
| Rpl24 | 2 | 35.5 | 24.1 |
| Rpl24 | 3 | 37.2 | 24.9 |
| Mydgf | 1 | 68.9 | 93.9 |
| Mydgf | 2 | 107 | 69.4 |
| Mydgf | 3 | 72.2 | 61.9 |
| Or5t9 | 1 | 91 | 82.3 |
| Or5t9 | 2 | 76.2 | 65.1 |
| Or5t9 | 3 | 78.8 | 50.6 |
| Rrp12 | 1 | 105 | 50.3 |
| Rrp12 | 2 | 81.3 | 58.7 |
| Rrp12 | 3 | 67.5 | 87.9 |
| Mmp24 | 1 | 56.3 | 79.2 |
| Mmp24 | 2 | 42.9 | 44.9 |
| Ldb1 | 1 | 130 (active) | 129 |
| Ldb1 | 2 | 66.5 | 81.6 |
| Ldb1 | 3 | 108 | 50.9 |
| Disc1 | 1 | 53.7 | 81.4 |
| Disc1 | 2 | 11.9 | 58.2 |
| Disc1 | 3 | 48.1 | 42.9 |
| Gpr180 | 1 | 98.1 | 113 |
| Gpr180 | 2 | 75.4 | 82.1 |
| Gpr180 | 3 | 92.6 | 56.9 |
| Or8d2b | 1 | 53.5 | 34.8 |
| Or8d2b | 2 | 102 | 57 |
| Or8d2b | 3 | 72.5 | 120 |
| Defa20 | 1 | 56 | 61.2 |
| Defa20 | 2 | 64.8 | 107 |
| Defa20 | 3 | 50.3 | 86.4 |
| Ano7 | 1 | 58 | 43.2 |
| Ano7 | 2 | 78.3 | 91.1 |
| Ano7 | 3 | 63.8 | 55.5 |
| Mink1 | 1 | 41.7 | 31.9 |
| Mink1 | 2 | 45.6 | 46.9 |
| Mink1 | 3 | 77.7 | 87.1 |
| Slc38a11 | 1 | 81 | 68.3 |
| Slc38a11 | 2 | 54.1 | 43.5 |
| Slc38a11 | 3 | 72.4 | 85.5 |
| Dcdc5 | 1 | 53.2 | 52.1 |
| Dcdc5 | 2 | 72.1 | 49 |
| Dcdc5 | 3 | 73.1 | 81.3 |
| Fign | 1 | 155 (active) | 81 |
| Fign | 2 | 85.3 | 104 |
| Fign | 3 | 103 | 88.7 |
| Tspan2 | 1 | 67.3 | 56.6 |
| Tspan2 | 2 | 37.4 | 70.2 |
| Tspan2 | 3 | 81.1 | 81.8 |
| Gpr65 | 1 | 63.1 | 84.6 |
| Gpr65 | 2 | 73.9 | 77.2 |
| Gpr65 | 3 | 73.4 | 66.9 |
| Psmb9 | 1 | 77.7 | 76.3 |
| Psmb9 | 2 | 55.8 | 53.9 |
| Psmb9 | 3 | 41.6 | 60.9 |
| Krtap19-1 | 1 | 113 | 113 |
| Krtap19-1 | 2 | 53.1 | 57.6 |
| Krtap19-1 | 3 | 83.1 | 99.2 |
| Vmn1r-ps103 | 1 | 59.4 | 54.2 |
| Vmn1r-ps103 | 2 | 71.5 | 64.3 |
| Vmn1r-ps103 | 3 | 90.1 | 97.1 |
| Yap1 | 1 | 101 | 64.4 |
| Yap1 | 2 | 47.1 | 65.8 |
| Yap1 | 3 | 96.2 | 106 |
| Klra16 | 1 | 66.4 | 57.9 |
| Klra16 | 2 | 96.7 | 71.4 |
| Klra16 | 3 | 76 | 64.5 |
| Tcf25 | 1 | 96.1 | 71.3 |
| Tcf25 | 2 | 41.4 | 50.9 |
| Tcf25 | 3 | 82.2 | 81.4 |
| Arid4b | 1 | 87.1 | 73.7 |
| Arid4b | 2 | 43 | 67.5 |
| Pcdha11 | 1 | 71 | 75.2 |
| Pcdha11 | 2 | 78.4 | 82.3 |
| Pcdha11 | 3 | 57.3 | 87.9 |
| Synj2bp | 1 | 70 | 41.9 |
| Synj2bp | 2 | 80.8 | 107 |
| Synj2bp | 3 | 137 (active) | 143 |
| Fbxw16 | 1 | 87.9 | 70.3 |
| Fbxw16 | 2 | 92.3 | 92.9 |
| Fbxw16 | 3 | 129 (active) | 117 |
| Pla2g10 | 1 | 86.7 | 65.4 |
| Pla2g10 | 2 | 58.7 | 71.7 |
| Pla2g10 | 3 | 91.8 | 75.3 |
| Or2ak6 | 1 | 69.8 | 52.1 |
| Or2ak6 | 2 | 83.1 | 70 |
| Or2ak6 | 3 | 83.2 | 83.9 |
| Rp1 | 1 | 42.1 | 74.6 |
| Rp1 | 2 | 73.5 | 93.3 |
| Rp1 | 3 | 58 | 102 |
| Ugt3a1 | 1 | 21.4 | 13.8 |
| Ugt3a1 | 2 | 67.2 | 63.9 |
| Ugt3a1 | 3 | 81.1 | 61.3 |
| Rpia | 1 | 93.5 | 101 |
| Rpia | 2 | 90.8 | 38.4 |
| Rpia | 3 | 46.5 | 66.5 |
| Abcd2 | 1 | 71.4 | 90.1 |
| Abcd2 | 2 | 88 | 76.8 |
| Abcd2 | 3 | 69.5 | 78.5 |
